In PubChem BioAssay AID2685 (National Center for Advancing Translational Sciences (NCATS), 2010):
Some of the results follow. Further columns of the screen follow, without active or inactive calls. Most of these compounds were active or inconclusive in the main read-out, so they are no random draw. The note in brackets gives the kind of curve behind each potency; many fits are weak.

Experiment: qHTS Assay for Lipid Storage Modulators in Drosophila S3 Cells;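 on cell number change: cells counted by Cell Tracker Red CMTPX staining in the red channel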
Conditions: BODIPY lipid droplet fluorescence, 18-24 h; for cell number change: measured here: cell count max response, cells fed with added oleic acid
Outline: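 Laser-scanning cytometry quantifies lipid droplet accumulation (500–530 nm total intensity; droplet/cell object ratio) in oleic acid-fed (400 uM added) Drosophila S3 cells treated with a concentration series. 20 uM Triacsin C defined 100% inhibition.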

[1] = measured here: cell number channel AC50, cells fed with added oleic acid
[2] = measured here: lipid fluorescence (Fed channel) AC50, cells fed with added oleic acid

Compound | cell number change [%] | AC50 [1] | AC50 [2]
Cc1cc(=O)oc2cc(OCC(=O)OCC(=O)NC(=O)NC(C)C)ccc12 | -44.9 | 2.91 µM [falling, full curve] | 11.6 µM [falling, partial curve]
CCOC(=O)C1=C(CN2CCN(C(=O)c3ccco3)CC2)NC(=O)NC1c1ccccc1 (configuration not stated) | -15.4 |  | 
Cc1ccccc1-c1coc2cc(O)ccc2c1=O | -8.35 | 0.82 µM [falling, full curve] | 0.82 µM [falling, full curve, poor fit]
C=CCOC(=O)CSCC(NC(=O)OC(C)(C)C)C(=O)OCC (configuration not stated) | -8.21 | 4.11 µM [rising, single point] | 
COc1cccc(C(=O)NCc2ccc(N3CCN(C(=O)OC(C)(C)C)CC3)cc2)c1 |  |  | 6.51 µM [falling, partial curve]
CN(CC(=O)Nc1ccccc1C(F)(F)F)C(=O)Cc1ccccc1F | -5.86 |  | 0.13 µM [rising, full curve, poor fit]
COc1ccc(CNC(=O)CN2C(=O)NC3(CCCc4sccc43)C2=O)cc1 (configuration not stated) |  | 2.06 µM [falling, partial curve, poor fit] | 1.46 µM [falling, partial curve, poor fit]
CCCCOc1ccc(CSc2nncn2N)cc1 | 0.847 |  | 0.82 µM [falling, full curve, poor fit]
O=C(COC(=O)Cc1cccc(F)c1)NCCc1ccccc1 | 5.87 |  | 0.206 µM [rising, full curve, poor fit]
CCc1ccc(NC(=O)N2CCN(C(=O)C3CCCO3)CC2)cc1 (configuration not stated) | 26.5 |  | 13 µM [rising, partial curve]
Cc1ccc(C)c(OCCn2cc(/C=C(\C#N)C(=O)NCc3ccco3)c3ccccc32)c1 | 42.4 | 25.9 µM [rising, single point] | 18.4 µM [rising, single point]
CCOC(=O)[C@@H]1[C@H]2COc3cc(OC)ccc3[C@@H]2N2C(=O)N(c3cccc(C)c3)C(=O)[C@@]12C | 6.29 |  | 29.1 µM [rising, single point]
COc1ccc(CNC(=O)CN(Cc2ccc(C)cc2)C(=O)c2csnn2)cc1 | 17.9 |  | 6.51 µM [rising, single point]
CCCCNC(=O)CCC(=O)Nc1ccc2nc(N3CCC(C)CC3)cc(C)c2c1 | -28.3 |  | 
CSc1ccccc1OCc1cc(C(=O)N2CCC(Oc3cccnc3)CC2)no1 | -13.1 |  | 11.6 µM [falling, partial curve]
Cc1ccc(N2C(=O)N(CC(=O)N3c4ccccc4CC3C)C(=O)C2C)cc1 (configuration not stated) | -16.4 |  | 4.11 µM [rising, partial curve]
